Experimental data: patent US20040009921A1, “Methods and compositions for the treatment of cancer” (Allergan, Inc., priority 2002, published 2004)
No constants are given. Whether binding was seen depends on the method and setting. Some results given as binding are weak or reduced against the parent protein; the word gives no strength.

Chains of the proteins cited; added tags and fusions are not shown.
UniProt P19793: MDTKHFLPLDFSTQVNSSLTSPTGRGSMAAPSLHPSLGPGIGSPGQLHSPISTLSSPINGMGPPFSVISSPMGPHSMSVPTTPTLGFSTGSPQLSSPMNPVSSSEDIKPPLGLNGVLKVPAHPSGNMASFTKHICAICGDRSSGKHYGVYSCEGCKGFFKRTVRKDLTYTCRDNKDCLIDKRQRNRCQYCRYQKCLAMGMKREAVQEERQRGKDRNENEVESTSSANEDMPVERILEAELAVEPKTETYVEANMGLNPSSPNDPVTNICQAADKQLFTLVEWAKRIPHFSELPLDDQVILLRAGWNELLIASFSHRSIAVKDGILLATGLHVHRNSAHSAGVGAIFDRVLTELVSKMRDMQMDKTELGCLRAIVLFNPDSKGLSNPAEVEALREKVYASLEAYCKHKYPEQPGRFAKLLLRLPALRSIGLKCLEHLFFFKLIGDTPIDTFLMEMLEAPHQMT

Biological target: Human RXRα (clone from a human keratinocyte cDNA library, yeast two-hybrid prey) (human) (UniProt P19793)
Assay: yeast two-hybrid screen, RARγ as bait

B1: RARγ (yeast two-hybrid bait) (receptor, UniProt P13631 1-454, looked up)
chain: MATNKERLFAAGALGPGSGYPGAGFPFAFPGALRGSPPFEMLSPSFRGLGQPDLPKEMASLSVETQSTSSEEMVPSSPSPPPPPRVYKPCFVCNDKSSGYHYGVSSCEGCKGFFRRSIQKNMVYTCHRDKNCIINKVTRNRCQYCRLQKCFEVGMSKEAVRNDRNKKKKEVKEEGSPDSYELSPQLEELITKVSKAHQETFPSLCQLGKYTTNSSADHRVQLDLGLWDKFSELATKCIIKIVEFAKRLPGFTGLSIADQITLLKAACLDILMLRICTRYTPEQDTMTFSDGLTLNRTQMHNAGFGPLTDLVFAFAGQLLPLEMDDTETGLLSAICLICGDRMDLEEPEKVDKLQEPLLEALRLYARRRRPSQPYMFPRMLMKITDLRGISTKGAERAITLKMEIPGPMPPLIREMLENPEMFEDDSSQPGPHPNASSEDEVPGGQGKGGLKSPA
binding: binds
